# Library screen at single concentrations

By UniProt entry, the sequences of proteins in these tests, tags left out. Residues count along the entry.
UniProt P9WFT3, whole entry: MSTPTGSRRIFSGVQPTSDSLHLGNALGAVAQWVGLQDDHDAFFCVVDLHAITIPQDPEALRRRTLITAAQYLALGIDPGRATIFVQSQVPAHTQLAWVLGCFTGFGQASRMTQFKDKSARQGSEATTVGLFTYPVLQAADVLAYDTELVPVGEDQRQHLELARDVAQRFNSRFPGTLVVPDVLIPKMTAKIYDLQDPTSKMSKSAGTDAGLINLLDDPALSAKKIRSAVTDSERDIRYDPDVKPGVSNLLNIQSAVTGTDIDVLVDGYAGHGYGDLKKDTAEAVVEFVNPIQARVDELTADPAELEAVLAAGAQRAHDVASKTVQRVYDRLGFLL
UniProt Q8IDJ8, 1-583: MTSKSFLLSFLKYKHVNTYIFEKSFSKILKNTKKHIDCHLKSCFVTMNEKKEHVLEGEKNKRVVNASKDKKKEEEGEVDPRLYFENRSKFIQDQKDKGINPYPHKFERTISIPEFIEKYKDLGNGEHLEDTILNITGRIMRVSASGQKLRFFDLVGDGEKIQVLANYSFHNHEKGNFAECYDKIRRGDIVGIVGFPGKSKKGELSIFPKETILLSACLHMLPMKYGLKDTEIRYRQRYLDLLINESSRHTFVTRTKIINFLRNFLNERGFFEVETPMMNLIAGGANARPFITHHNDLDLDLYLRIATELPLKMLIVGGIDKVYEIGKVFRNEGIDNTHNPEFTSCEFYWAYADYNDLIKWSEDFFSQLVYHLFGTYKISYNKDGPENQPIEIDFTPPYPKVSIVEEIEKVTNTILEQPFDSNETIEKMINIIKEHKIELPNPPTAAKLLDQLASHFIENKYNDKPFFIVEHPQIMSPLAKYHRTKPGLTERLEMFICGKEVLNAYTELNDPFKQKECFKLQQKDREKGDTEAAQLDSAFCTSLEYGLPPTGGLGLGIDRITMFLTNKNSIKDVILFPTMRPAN
UniProt P9WNZ1, whole entry: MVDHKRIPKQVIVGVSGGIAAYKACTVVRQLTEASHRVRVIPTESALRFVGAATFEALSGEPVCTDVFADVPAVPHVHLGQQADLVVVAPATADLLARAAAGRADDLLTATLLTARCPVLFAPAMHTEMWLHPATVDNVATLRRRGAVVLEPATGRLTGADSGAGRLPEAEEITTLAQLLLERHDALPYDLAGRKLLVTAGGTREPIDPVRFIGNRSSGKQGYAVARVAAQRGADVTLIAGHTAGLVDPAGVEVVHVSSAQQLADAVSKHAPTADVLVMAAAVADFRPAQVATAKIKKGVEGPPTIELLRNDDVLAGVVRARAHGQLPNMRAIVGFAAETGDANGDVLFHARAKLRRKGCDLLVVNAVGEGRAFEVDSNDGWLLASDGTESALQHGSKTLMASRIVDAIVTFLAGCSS
UniProt P9WPC5, whole entry: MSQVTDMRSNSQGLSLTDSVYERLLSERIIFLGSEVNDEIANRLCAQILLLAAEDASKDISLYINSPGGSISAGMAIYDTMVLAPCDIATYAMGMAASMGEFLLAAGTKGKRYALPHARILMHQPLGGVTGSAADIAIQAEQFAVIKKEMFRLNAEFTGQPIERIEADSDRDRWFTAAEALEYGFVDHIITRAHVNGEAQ
UniProt P9WPC3, whole entry partner: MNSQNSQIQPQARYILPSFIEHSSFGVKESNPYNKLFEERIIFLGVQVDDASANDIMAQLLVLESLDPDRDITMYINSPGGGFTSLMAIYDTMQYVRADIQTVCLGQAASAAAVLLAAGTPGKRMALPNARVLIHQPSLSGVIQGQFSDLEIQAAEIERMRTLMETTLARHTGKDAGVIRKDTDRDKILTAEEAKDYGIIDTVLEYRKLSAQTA
UniProt Q4DA54, 1-478: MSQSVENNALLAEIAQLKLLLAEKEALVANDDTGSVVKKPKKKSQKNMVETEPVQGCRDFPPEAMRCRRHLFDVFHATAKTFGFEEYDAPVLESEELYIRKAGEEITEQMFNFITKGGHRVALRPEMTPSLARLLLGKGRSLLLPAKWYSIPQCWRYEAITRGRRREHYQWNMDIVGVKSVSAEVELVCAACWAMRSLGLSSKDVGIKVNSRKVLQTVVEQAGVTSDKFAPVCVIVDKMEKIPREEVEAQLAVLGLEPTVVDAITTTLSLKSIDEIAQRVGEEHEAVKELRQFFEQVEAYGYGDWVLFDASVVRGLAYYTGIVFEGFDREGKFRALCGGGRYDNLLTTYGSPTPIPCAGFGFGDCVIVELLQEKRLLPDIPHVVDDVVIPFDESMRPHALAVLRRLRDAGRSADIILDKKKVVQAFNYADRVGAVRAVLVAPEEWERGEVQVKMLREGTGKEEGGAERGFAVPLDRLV

Source: ChEMBL document CHEMBL3988442, “University of Dundee, Small-Polar-MMV Screening Library” (2021).

Each number is a percent effect as filed.
The controls that fix the scale are not given in the record; negative values are as filed.
This is an unselected part of the compounds tested.
A dash means the value is not listed here; it may have been measured.

MtTrpRS: 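Tryptophan-tRNA ligase, Mycobacterium tuberculosis (UniProt P9WFT3). Enzyme assay of tryptophanyl-tRNA synthetase; the read-out is not stated. Compounds at 10 µM. Direction is not recorded; retested compounds ran higher, which suggests that high means inhibition. Of about 65,000 compounds tested this way, about 64 (0.098%) reached 50% or more in at least one test.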
PfKRS1: 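Enzyme assay of the cytosolic lysyl-tRNA synthetase in 384-well plates, read by luminescence. Target: Lysine-tRNA ligase, Plasmodium falciparum 3D7 (UniProt Q8IDJ8). Tested at 30 µM. Direction is inferred from only a few compounds that gave an IC50; most scored high, so higher reads as stronger inhibition. About 69,000 compounds were tested under these conditions; 0.071% (about 49) showed 50% or more at least once.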
CoaBC: 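Enzyme assay of CoaBC with a phosphate dye (Biomol Green) read at 650 nm. Target: Coenzyme A biosynthesis protein CoaBC, Mycobacterium tuberculosis (UniProt P9WNZ1). Compounds at 30 µM. Higher reads as stronger inhibition, judged from the few compounds that gave an IC50. Most strong results did not repeat in a second test. Of about 67,000 compounds tested this way, about 40 (0.06%) reached 50% or more in at least one test.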
ClpP1P2: 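ClpP1P2, Mycobacterium tuberculosis (UniProt P9WPC5 and UniProt P9WPC3). Protease assay of ClpP1P2, read by the AMC dye that it sets free. Compounds at 50 µM. Higher reads as stronger inhibition, judged from the few compounds that gave an IC50. Most other retested compounds had strongly negative values. Size under these conditions: about 69,000 compounds, about 10 of them at 50% or above in at least one test.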
TcHisRS: 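Enzyme assay of histidyl-tRNA synthetase; the read-out is not stated. Target: Histidine-tRNA ligase, Trypanosoma cruzi CL Brener (UniProt Q4DA54). Tested at 30 µM. Direction is inferred from retests: higher values go with stronger inhibition. Of about 69,000 compounds tested this way, about 31 (0.045%) reached 50% or more in at least one test.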

SMILES | MtTrpRS | PfKRS1 | CoaBC | ClpP1P2 | TcHisRS
Cc1cc(C)c2nc(C)cc(C(=O)NC(C)c3nnn[nH]3)c2c1 (centres undefined) | -1.795 | -0.799 | -2.703 | -8.339 | 11.11
Cn1ncc2c1C(COCC1CC1)CN(C(=O)c1cscn1)C2 (centres undefined) | 1.91 | 0.7388 | 1.014 | 5.092 | 10.92
CCN(Cc1cccnc1)CC1(C)Cc2c(N)nc(N)nc2O1 (centres undefined) | -2.211 | 0.2988 | 2.891 | 0.3288 | 5.303
CO[C@H]1CO[C@@]2(CCCN(C(=O)N(C)C)C2)C1 | - | 4.82 | -1.235 | 4.875 | 12.7
c1ccc(O[C@H]2COCCN(CC3CC3)C2)cc1 | -3.414 | 4.842 | -1.545 | -6.208 | 6.522
CC(C)Cc1noc(CN(C)c2cc(N(C)C)ncn2)n1 | -8.301 | 3.819 | 3.951 | -20.19 | 10.45
CCCc1nc(CN(C)CC2CCN(CCO)CC2)no1 | 0.7936 | 5.417 | -26.6 | -4.809 | 9.852
Cc1nn(C)c(C)c1CC(=O)N1CCCN(c2cccnn2)CC1 | -7.721 | -3.045 | 10.01 | -6.615 | 1.775
CC1CN(C)c2ccccc2CN1C(=O)c1ccoc1 (centres undefined) | -2.584 | -3.523 | -1.711 | -9.945 | 6.186
c1ccc(C(c2ccccc2)N2CCN(CCn3cncn3)CC2)cc1 | 2.249 | -1.989 | 10.2 | 6.173 | 4.255
Cc1oc(C(C)C)cc1C(=O)N1CCN(c2cnn(C)c(=O)c2)CC1 | 2.709 | 3.055 | 2.439 | -18.15 | -1.961
Cc1cccc(C(=O)NCc2ccc(N3CCCCC3)nc2)n1 | 1.267 | 7.501 | 5.222 | 9.883 | 7.895
CC(C)c1nc(CN(C)S(=O)(=O)c2cccs2)cs1 | -2.397 | -5.137 | -1.946 | -9.864 | 0.6061
O=C(c1cccc(F)c1)N1CCN2C[C@H](OCc3cccnc3)C[C@H]2C1 | 5.991 | 1.347 | -2.332 | 5.086 | 2.732
Cc1cc(C)c2c(N3CCN(C(=O)N4CCOCC4)CC3)ncnc2n1 | 5.727 | -5.403 | 7.438 | 6.649 | 11
O=C(c1cccc(Cl)c1)N1CC[C@H]2[C@H]1CCN2CC1CCOCC1 | -2.115 | -1.633 | -4.922 | 4.228 | 7.104
Cc1nc(CN2CCCCC2Cn2cncn2)nc2ccccc12 (centres undefined) | 2.893 | 6.856 | 9.231 | 24.25 | 2.642
CC(Cn1cccn1)NCc1nc(-c2ccco2)no1 (centres undefined) | -8.662 | 0.4233 | 3.781 | 1.193 | 6.936
CN(C(=O)c1cccc(NCc2cccs2)c1)C(C1CC1)C1CC1 | 0.1566 | 5.868 | -0.2469 | -41.24 | 7.463
O=C(CCN1C(=O)CC2(CCCC2)C1=O)NCCc1nccs1 | -1.085 | 7.034 | 4.684 | -6.451 | 2.484
Nc1nc(CN2CCN(c3nccs3)CC2)cs1 | 3.461 | 7.473 | -5.366 | -20.7 | 2.941
O=C(NC1CC1)c1cccc(Oc2ccc3nncn3n2)c1 | -2.395 | 0.06864 | -2.169 | 3.886 | 0
O=C(CCO)N[C@H]1CN(CC2CCC2)C[C@@H]1c1ccccc1 | -0.4841 | 1.576 | 2.228 | -4.725 | 2.41
CN(C)S(=O)(=O)N1CCCC1c1cccc(-n2ccnc2)n1 (centres undefined) | - | 3.969 | 2.913 | -6.568 | 5.495
CC(C)Nc1ncnc2c1CCN(C(=O)N1CCOCC1)CC2 | -3.438 | 2.662 | 2.231 | 7.415 | 7.563
CNc1cc(N2CCCC2CNCc2ccc(C)o2)ncn1 (centres undefined) | 0.8393 | 7.731 | 4.569 | 7.086 | 13.9
CN(c1ncc(C(N)=O)cc1Cl)C1CCC(c2ccccc2)CC1 (centres undefined) | 0.7498 | 3.983 | 4.538 | -2.504 | 6.061
Cc1ccccc1OC1CCN(CC(=O)Nc2c(C)nn(C)c2C)CC1 | -9.931 | 0.331 | 5.708 | -24.36 | 4.286
O=C1NCCN(CC2CC2)C12CCN(Cc1ccco1)CC2 | 7.191 | -1.591 | 0.3861 | 16.27 | 1.639
CC(C)(C)n1ncc2c1NC(=O)CC2c1ccc(OCC(N)=O)cc1 (centres undefined) | 1.587 | 0.142 | 0.8772 | -8.935 | -2.479
COC(=O)C1=C(C)N=C2SCC(=O)N2C1c1cnn(C)c1C (centres undefined) | 1.248 | 4.68 | -0.7009 | -11.22 | 1.327
CCC(=O)N1CCC(Cc2ccccc2-c2ccccc2F)(C(N)=O)C1 (centres undefined) | - | 2.411 | 1.363 | -10.6 | 2.996
Cc1cc(C)c(C(=O)Nc2cccc(CN3CCC(CO)CC3)c2)o1 | -5.477 | 4.257 | 3.393 | 19.73 | 7.035
Cc1cc(C)n(Cc2cccc(C(=O)N3CCOCC3(C)C)c2)n1 | -5.957 | -3.135 | 2.254 | -3.506 | 5.319
CCn1ncc2c1CCCC2NCc1ccc(OC)cc1OC (centres undefined) | -5.96 | 0.7893 | 1.05 | -17.24 | 1.714
O=C(CCn1ccnc1)N1CC[C@H](Oc2ccc(F)cc2)[C@@H](O)CC1 | -5.548 | 1.11 | -2.421 | -3.755 | 2.26
NC(=O)C1CN(C(=O)c2ccc(F)cc2)CCN1CCc1ccccc1 (centres undefined) | -0.6342 | 1.072 | -3.641 | -27.68 | 4.981
Cc1noc(C2CCN(CC(=O)N3CCNC(=O)C3)CC2)n1 | -4.187 | -2.401 | -13.41 | 6.187 | 4.598
O=C(NC1CCS(=O)(=O)C1)c1ccc(SCc2cscn2)cc1 (centres undefined) | -4.641 | 3.477 | 11.65 | 9.173 | 1.064
O=C(c1ccsc1)N1C[C@@H]2C[C@@H](c3nnc(C4CC4)o3)O[C@@H]2C1 | -1.433 | 7.584 | 3.929 | -11.92 | 1.087
Cn1cc(CN2CCCC(O)C2)c(-c2ccccc2F)n1 (centres undefined) | 1.639 | -1.864 | 13.89 | 3.621 | 1.739
O=C(COc1ccccc1F)N1CCCCC1c1ccn2ccnc2n1 (centres undefined) | - | 2.346 | 4.358 | -6.916 | 1.111
CC(C)N1CCc2c(CNC(=O)c3nccn3C)cncc2C1 | -4.988 | 6.818 | 1.478 | 3.048 | 5.155
c1ccc(OCCN2CCc3c(ncn3C3CC3)C2)cc1 | -7.688 | 1.335 | 4.7 | -39.94 | 6.78
Cn1cc(CC2CCN(C(=O)NCc3cccc(C(N)=O)c3)C2)cn1 (centres undefined) | 2.912 | 2.735 | 1.535 | -20.83 | 1.765
O[C@@]1(CN2CCN(Cc3ccncc3)CC2)CCCN2CCCC[C@@H]21 | 3.694 | 8.284 | 17.06 | 3.338 | 3.061
CNc1cc(C)nc(N2C[C@H](NC(=O)C3CCOCC3)[C@@H](C3CC3)C2)n1 | -3.027 | 1.031 | -2.218 | -5.496 | 0
COc1nc(C)ccc1CNC(=O)NC(C)(C)c1ncc(C)s1 | -1.574 | 2.678 | 3.629 | -6.136 | 0.8403
O=C(CC1CC1)N1CCn2cc(Cn3cncn3)nc2C1 | 2.536 | 2.924 | -0.6337 | -8.538 | -1.087
O=C(CCc1ccccc1)N1CCC(c2n[nH]c(C3CC3)n2)CC1 | 0.2129 | 0.8084 | 0.123 | -6.469 | 14.94
Cc1cccc(-c2noc(CN3CCn4c(nnc4C4CC4)C3)n2)c1 | -0.1875 | 0 | 3.566 | -2.477 | 5.051
Cn1cc(C(=O)NC2CCCC2)c(-c2cccnc2)n1 | 1.332 | 4.612 | 6.855 | -0.1207 | 5.882
CCOCn1cc(NC(=O)C2CCN(S(C)(=O)=O)CC2)cn1 | - | 3.599 | -0.3681 | -3.876 | 2.312

6 of the entries, repeated:

SMILES,MtTrpRS,PfKRS1,CoaBC,ClpP1P2,TcHisRS
O=C(CCN1C(=O)CC2(CCCC2)C1=O)NCCc1nccs1,-1.085,7.034,4.684,-6.451,2.484
Cn1cc(C(=O)NC2CCCC2)c(-c2cccnc2)n1,1.332,4.612,6.855,-0.1207,5.882
CCC(=O)N1CCC(Cc2ccccc2-c2ccccc2F)(C(N)=O)C1 (centres undefined),-,2.411,1.363,-10.6,2.996
Cc1cc(C)c2nc(C)cc(C(=O)NC(C)c3nnn[nH]3)c2c1 (centres undefined),-1.795,-0.799,-2.703,-8.339,11.11
CO[C@H]1CO[C@@]2(CCCN(C(=O)N(C)C)C2)C1,-,4.82,-1.235,4.875,12.7
CC1CN(C)c2ccccc2CN1C(=O)c1ccoc1 (centres undefined),-2.584,-3.523,-1.711,-9.945,6.186